In PMC7044438:
Results are given in words; binding and its absence hold for the method and conditions named. Some entries that bind do so weakly or less than the wild type.

Chains of the proteins cited; added tags and fusions are not shown.
UniProt P10824: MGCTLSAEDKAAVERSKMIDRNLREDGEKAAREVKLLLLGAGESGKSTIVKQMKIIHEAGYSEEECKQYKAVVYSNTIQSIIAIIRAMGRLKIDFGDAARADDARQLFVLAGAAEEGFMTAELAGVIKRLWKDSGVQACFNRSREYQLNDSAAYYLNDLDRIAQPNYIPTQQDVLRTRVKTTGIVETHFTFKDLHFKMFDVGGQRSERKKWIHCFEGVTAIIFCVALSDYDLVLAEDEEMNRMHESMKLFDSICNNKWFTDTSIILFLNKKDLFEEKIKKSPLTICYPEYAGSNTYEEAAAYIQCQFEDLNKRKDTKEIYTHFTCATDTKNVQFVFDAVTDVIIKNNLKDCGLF

Molecular target: Gαi1 (as used for cross-linking, immunisation, nanobody screening and the unpublished Gαi:Nb9156 crystal structure) (rat) (UniProt P10824)
Assay: cross-linking; 20 μM Ric-8A:Gαi1 complex in 20 mM PBS pH 7.4, 1 mM DTT, with K100 and BS3, room temperature 30 min; SDS-PAGE and Western blot; both purified

- binding: binds
B1: Ric-8A (as used for cross-linking, immunisation and nanobody screening) (protein, UniProt Q80ZG1 1-530)
chain: MEPRAVADALETGEEDAVTEALRSFNREHSQSFTFDDAQQEDRKRLAKLLVSVLEQGLSPKHRVTWLQTIRILSRDRSCLDSFASRQSLHALACYADIAISEEPIPQPPDMDVLLESLKCLCNLVLSSPTAQMLAAEARLVVRLAERVGLYRKRSYPHEVQFFDLRLLFLLTALRTDVRQQLFQELHGVRLLTDALELTLGVAPKENPLVILPAQETERAMEILKVLFNITYDSVKREVDEEDAALYRYLGTLLRHCVMADAAGDRTEEFHGHTVNLLGNLPLKCLDVLLALELHEGSLEFMGVNMDVINALLAFLEKRLHQTHRLKECVAPVLSVLTECARMHRPARKFLKAQVLPPLRDVRTRPEVGDLLRNKLVRLMTHLDTDVKRVAAEFLFVLCSESVPRFIKYTGYGNAAGLLAARGLMAGGRPEGQYSEDEDTDTEEYREAKASINPVTGRVEEKPPNPMEGMTEEQKEHEAMKLVNMFDKLSRHRLIQPMGMSPRGHLTSLQDAMCETMEGQLSSDPDSDPD
